We go through 66 sequences from PubChem BioAssay AID1347423 (Functional Genomics Laboratory (NCATS/FGL), 2020).

Screen size: about 52,000 sequences; about 210 (0.4%) were called active.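 The calls were made as follows: active = gene whose silencing raises cell survival under the drug, median off-target-corrected z-score across its silencing RNAs 2 or more; inactive = the rest.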 This is one part of the list.

The assay in a line: Resistance to Poly (ADP-Ribose) Polymerase inhibitor: Gene Identification via Genome-wide siRNA Screen. The note with it: mouse BRCA2 R2336H ES cells, olaparib, CellTiter-Glo viability; stronger effect = higher value. In short, it runs like this:
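Genome-wide siRNA screen (3 siRNAs/gene, 20 nM) in mouse ES cells carrying hypomorphic BRCA2 R2336H; olaparib 500 nM added 48 h post-transfection, CellTiter-Glo viability 72 h later. Normalized to plate-median negative control; MAD z-scores, gene median, seed-adjusted.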
A general note: ATP-based viability assays read luminescence as a measure of living cells.
Regarding GGAUACAAAGAGAGUUGUCTT against Eif3s8, the z-score was inactive: -2.49.
In the case of CCUCGGAUAAGGUUAUUGCTT against AI317223, the z-score was inactive: 0.673.
To GGUCUACCAUUUCACCUUGTT against Cops4 belongs inactive: -2.31; to GGUACACUGGUAUACGUAUTT against AA175286, inactive: 0.0292; to CCAAGUUGAGAAAUUUCUGTT against Cndp1, inactive: -0.22.
In the case of CCCUUCUUUCAAGAAUCUUTT against Olfr325, the z-score was inactive: -0.596.
The result for GCAUCAUUAUCUUACCAACTT against Olfr826 reads inactive: -0.371; that for GGACAGAUAGUCCUUCGCUTT against Slc7a8, inactive: -0.0739.
To “GGGACAAUUGGAAAGGCGATT against 2410080P20Rik” belongs inactive: -0.485.
GCCGUGGAUCGAAUAAUUCTT against Coq7: the z-score is inactive: -0.745.
GCCAGAGACAAGUAUCAGCTT against Egln2: the z-score is inactive: -1.41.
In the case of CCAUGUGAAUGUCUUUAUUTT against Xtrp3s1, the z-score is inactive: 0.223.
Consider GGUCUUACCAACAGAACCCTT against Rad51ap1, for which the z-score was inactive: 0.371.
As for “GCCAAAUUAGGUGACACUATT against 1190002H23Rik”, the z-score is inactive: 0.601.
Regarding GCUAUUUGACUUGUUGUAATT against Rsb30, the z-score is inactive: -0.272.
On to CGUGCACUGACCAACCAUATT against Dcxr, for which the z-score is inactive: -0.573.
The result for CCCUUAAUGUUUCUAUGGCTT against Klf5 reads inactive: 2.5; that for GGAACUCGGAAUUUCUGCCTT against Csf2, inactive: -0.754; that for GGAGUCGAGAGAGCAUUGGTT against Slc30a7, inactive: -1.54.
To GGGAUACGUUAAUUGUAACTT against Slc6a5 belongs inactive: -0.56; to GGGUAUGGGAGGACUUUUGTT against V1rd4, inactive: 0.469; to GCCUCGUUGACUCCACUAUTT against Rab3ip, inactive: -0.552.
As for GUCCUGCUUUCUCUCAUCUTT against Olfr686, the z-score was inactive: 3.84.
Regarding GGAGCAAGAUCAAAUAUGATT against Cflar, the z-score was inactive: -0.46.
Regarding GCAUUGGACCAGUCCAGAUTT against Nr6a1, the z-score was inactive: 1.06.
Consider GCCCAAAAGUGGUUUCCAATT against Rab11fip2, for which the z-score is inactive: -1.11.
As for GGUAUACCAUUCUCAUGAGTT against Olfr332, the z-score is inactive: -0.157.
On to CCUCCCAGUACACUUGAAATT against Cox7a1, for which the z-score was inactive: 0.417.
Turning to GGAGAUGGCACAGUCAGUCTT against Slc22a8, the z-score is inactive: 1.03.
Regarding CCCUUGUCUCAUGUCAAGGTT against Eras, the z-score was inactive: 1.42.
As to CGAGAGUGGGUGGGUUGAATT against BC055757, the z-score is inactive: -2.09.
To “GGGAGUGCUUUAGAAAAAATT against C730036D15Rik” belongs inactive: -1.16; to “GGAGAGGUUCCAUGUGACUTT against 1620401E04Rik”, inactive: 0.779.
As for GGCCAAUGGGUUAUCUGGATT against Scotin, the z-score is inactive: -1.27.
Turning to GCUUCCAGACAAGCUUCGATT against Fthfsdc1, the z-score was inactive: -0.985.
For GCUGCAUCAAAUCUUCCAUTT against Prlpc1, the z-score is inactive: -0.42.
Take GGAUUUACAGAAGUGAAGGTT against Cald1: the z-score is inactive: 1.42.
To “GCCUUCUGAUAAUAUUAUGTT against C330002D13Rik” belongs inactive: 1.27; to CCUGCAUGACGGAAUUCUUTT against Acacb, inactive: 0.307.
GGCUGUGAAGUCUAAAACUTT against Thbs4: the z-score was inactive: 1.54.
Turning to CGUAUCAAACAGGAAAUGGTT against Arid5b, the z-score is inactive: 1.02.
The result for “CCCAAGCACCAGCCCUAUATT against 1200004M23Rik” reads inactive: -0.676.
As for CCAAUAAAUUACAAGACGATT against Slc22a9, the z-score is inactive: 0.0191.
For “CCGCUUUAAGAUAAACACUTT against 4921503C21Rik”, the z-score is inactive: -0.23.
To GGAAGUUUUGCUAUUACACTT against Ubap1 belongs inactive: -1.2; to CCUAUGUCAAAAAGGUUCGTT against Slc4a2, inactive: -0.409; to GGGCAGUCAUAGCUUUAGUTT against MGC58365, inactive: 0.123.
As for GGUCAAAUGAGCAGAAUAATT against Foxi1, the z-score was inactive: -1.22.
The result for “GGGUCCUUUCAAAUAUAUATT against 1200016B17Rik” reads inactive: -0.663.
For the sequence GGGACAUCAUGUGAAGGACTT against Timm50, the z-score was inactive: -0.0671.
Take GGAUCAAUGUGGUACCUAUTT against Sf3a1: the z-score was inactive: -3.21.
The result for GCUUUUCAGGGCAGGUUACTT against BC062109 reads inactive: -0.619; that for GCUAACAGUAUCCUUAUUUTT against V1rb3, inactive: -1.66; that for “GGUAAACUGACCCAAGCUGTT against A630026F21Rik”, inactive: -3.43.
For the sequence GCCUUUUAUUUGACUCAUATT against Zfp346, the z-score was inactive: 0.0155.
To “GGCUAUCCAGAGAUACGUGTT against 3300001G02Rik” belongs inactive: 1.13.
To “GCCGUUUUAUUCACGUGAATT against 1810033M07Rik” belongs inactive: -0.105; to GGAUCAUGAAUACGUUCAGTT against Tubb4, inactive: 0.0428; to GCUCAACAGACUCUGUACUTT against Igsf4d, inactive: 2.89.
As to GCCACCAAGUACUUUGGUUTT against V1rg4, the z-score is inactive: 0.951.
For the sequence “GCCAGUUGACUCUUCUUUATT against 6030404E16Rik”, the z-score is inactive: 0.181.
For the sequence “GCCAGGACUUGUUAAAAAGTT against 3732412D22Rik”, the z-score is inactive: 0.154.
For the sequence GCUGUUACCUCCAAGAGUCTT against Stra13, the z-score is inactive: -0.311.
Regarding GGUUAUCCAACCUAGAAUATT against Tmlhe, the z-score is inactive: -0.7.
For the sequence “GGUGGGAAUUACCUUACUUTT against 6820402O20Rik”, the z-score was inactive: 1.26.
To “GGGAAGCUCGUUUUAACAATT against 2400003N08Rik” belongs inactive: -1.97.
